Results as given in US20230102223A1, “PHARMACEUTICAL COMPOSITIONS WITH ANTIFLAVIVIRAL ACTIVITY” (HEALTH RESEARCH, INC., priority 2016, published 2023).
At least one compound was matched to its structure with a doubt left.

By UniProt entry, the sequences of proteins in these tests, tags left out. Residues count along the entry.
UniProt Q32ZE1, 1499-1676: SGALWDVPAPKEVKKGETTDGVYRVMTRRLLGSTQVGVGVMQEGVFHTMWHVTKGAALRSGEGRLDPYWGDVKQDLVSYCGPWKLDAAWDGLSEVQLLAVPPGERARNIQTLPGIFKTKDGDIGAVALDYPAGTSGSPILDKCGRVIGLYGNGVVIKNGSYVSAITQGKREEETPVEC

Columns and labels:
DENV2 His-MBP-NS3 = DENV2 His-MBP-NS3 (Dengue virus type 2, UniProt P29990); experiment: Protein thermal shift assay (PTSA); type: binding; settings: compound 4.8 μM, protein 2.5 μM
Protocol: PTSA was conducted using an Applied Biosystem 7500 Fast Real-Time PCR System (ThermoFisher Scientific) from 25 to 80° C. The DENV2 His-MBP-NS3 (final concentration of 2.5 μM in 1× PBS) was mixed with each compound to attain a 4.8 μM final concentration in 1.6% DMSO in the MicroAmp® Fast Optical 96-Well Reaction Plate (ThermoFisher Scientific). Thermal denaturation was monitored using SYPRO Orange (Life Technologies) according to manufacturer's manual. The denaturation of the proteins was monitored by following the increase of the fluorescence emitted by the probe that binds exposed hydrophobic regions of the denatured protein. The melting temperature (Tm) was calculated as the mid-log of the transition phase from the native to the denatured protein, using a Derivative model using the Protein Thermal Shift™ Software v1.0 (ThermoFisher Scientific). The reference unfolding temperature of proteins in 1.6% DMSO (Tm-DMSO) was subtracted from the values in the presence of each compounds (Tm-comp) to obtain thermal shifts, ΔTm=Tm-comp−Tm-DMSO. Compounds were considered to be binders when ΔTm>0.5° C.

[1] = biological target: ZIKV GST-NS3 protease domain / FLAG-tagged ZIKV NS2B (Zika virus, UniProt Q32ZE1); experiment: Competitive GST pull-down assay; type: binding; settings: pre-incubation with GST-NS3 beads; dose-dependent
Protocol: GST-NS3 or the GST-tag (10 μg) was immobilized on Glutathione sepharose-4B affinity beads (GE HealthCare). FLAG-tagged NS2B (10 μg) was incubated with the beads for 2 hours, and subjected to WB, using anti-FLAG (Genscript) and anti-GST antibodies (GE Healthcare). […] The assay was performed the same as in FIG. 32A, except that 2-fold dilution series of drugs were incubated with the GST-NS3 beads overnight prior to incubation with the FLAG-NS2B. […] The binding of NS2B to NS3 in the absence of each drag (DMSO control) was set as 100%. The relative binding of NS2B to NS3 in the presence of each drug was normalized to the DMSO control.

With `CC(=O)Oc1ccccc1C(=O)Nc1ncc([N+](=O)[O-])s1` [Nitazoxanide, [2-[(5-nitro-1,3-thiazol-2-yl)carbamoyl]phenyl]acetate] the “Tm compared to the DMSO control” value (DENV2 His-MBP-NS3) was “increased Tm” and the “binding of FLAG-NS2B to GST-NS3” value [1] was “significantly decreased the binding”.
